This is one part of the list.
Target: OsWRKY34 (Oryza sativa, UniProt Q0JBA9 1-250)
Assay: protein-binding microarray (RPBM); PBS, 2% BSA, 51.3 ng/ul salmon testes DNA, 50 uM zinc acetate, 200 nM TF, 25 C, 1 h; high values mean tight binding
Settings: protein: recombinant; tags: N-terminal polyhistidine and DsRed monomer fusion (pET32a); label: CyDye5-dUTP incorporated in the synthesized complementary strand; 3' TTTTT single-stranded linker to array surface; dsDNA, one strand shown
How it was run: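 Binding signal is defined as the fluorescence intensity of each feature in arbitrary units, read on an Axon 4000B scanner. Transcription factors with N-terminal polyhistidine and DsRed fusions came from E. coli BL21-CodonPlus and were purified on Ni–NTA. They were incubated at 200 nM for 1 h at 25 °C on a custom Agilent array that had been made double-stranded with Cy5-dUTP, with 50 µM zinc acetate present, and the array was washed.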

Amino acid sequences for entries named in this document (tags omitted).
UniProt Q0JBA9, entry or part of it: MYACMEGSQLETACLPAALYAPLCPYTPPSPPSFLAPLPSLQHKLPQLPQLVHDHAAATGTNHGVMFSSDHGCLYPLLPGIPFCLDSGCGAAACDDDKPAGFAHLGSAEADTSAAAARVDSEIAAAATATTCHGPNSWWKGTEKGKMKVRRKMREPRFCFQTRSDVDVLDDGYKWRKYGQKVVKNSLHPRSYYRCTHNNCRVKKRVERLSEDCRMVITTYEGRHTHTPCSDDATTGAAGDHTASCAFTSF

Sequence | binding signal
TGGATGTATGGGATGGCACGGGGCGAATGAATTCGCATTCCGGAGTCACCTAGTGCAG | 9340 fluorescence intensity (a.u.)
ATGTTTGGGTGGGTCGCCAGGGCCGATGATCACAACTCTCCGGAGTCACCTAGTGCAG | 9100 fluorescence intensity (a.u.)
AACTACTACACACCGGATCAGGCTTCTCCACCTTCCAAATCGGAGTCACCTAGTGCAG | 8280 fluorescence intensity (a.u.)
AAAGCGGACGTCATCATTCATCCTCGAGCCCCTCAACTGGCGGAGTCACCTAGTGCAG | 9960 fluorescence intensity (a.u.)
ATTTTCGATATTGTTTTTCGTTTAACATTTATATCCAATTCGGAGTCACCTAGTGCAG | 10800 fluorescence intensity (a.u.)
CCCTCAATGTGTGGTTAGGGTTTGGCTCCATGGATGACTCCGGAGTCACCTAGTGCAG | 10400 fluorescence intensity (a.u.)
CAGTACGCTACTATTCATACGCTGAATTTGTCTTTTTATACGGAGTCACCTAGTGCAG | 9120 fluorescence intensity (a.u.)
GCTGTATGCCTTTATTAATATGTATGCTATATTTACTGTTCGGAGTCACCTAGTGCAG | 9060 fluorescence intensity (a.u.)
AGGGAGCAGGGTGGGCGTGTCTTCGTACATTGTTGCCAGGCGGAGTCACCTAGTGCAG | 10400 fluorescence intensity (a.u.)
CGTTCACAACTCACTGGGGTCTGGGCTTAATAATCTTCTTCGGAGTCACCTAGTGCAG | 12800 fluorescence intensity (a.u.)
TCATCATCGTCTGGGCTGCCATGTCATTCAACTCCCTCTACGGAGTCACCTAGTGCAG | 11000 fluorescence intensity (a.u.)
ATGCATCTTATTTCTTTCTAGAATGCTCTGCTACATAGTACGGAGTCACCTAGTGCAG | 8250 fluorescence intensity (a.u.)
GATCCGGCTCATTTCAGCCTCACACCCAGCAACACTTCGCCGGAGTCACCTAGTGCAG | 8780 fluorescence intensity (a.u.)
AAAATCAAAACGCTACCACAGCCACACTCTCACACACACACGGAGTCACCTAGTGCAG | 9150 fluorescence intensity (a.u.)
ATTAGATGTTTGTTTTCTTTTCTTAGTCAAACTTCTTTTACGGAGTCACCTAGTGCAG | 8830 fluorescence intensity (a.u.)
TGTTCTTGCGCCGGTAAAGTCGCCGACGGGGAGGGGTAAACGGAGTCACCTAGTGCAG | 11600 fluorescence intensity (a.u.)
TGTAAATTTCCCGGCGGCTTCTCGCATCTCGTTCATCGTCCGGAGTCACCTAGTGCAG | 8090 fluorescence intensity (a.u.)
GATTCCAGCCAATTGACTGTGTTCCTTGATGATTATACCACGGAGTCACCTAGTGCAG | 9470 fluorescence intensity (a.u.)
TTAATCTTCACGCGTTTGCTTACTCCTATATATATATGTACGGAGTCACCTAGTGCAG | 9730 fluorescence intensity (a.u.)
GTGTTATGAGTTGTGCCACCGTCTTCTCTCCCGTATAATCCGGAGTCACCTAGTGCAG | 9390 fluorescence intensity (a.u.)
TCAATGTCATCTCTAACCTTTTTTTCCCTACACAGAATGTCGGAGTCACCTAGTGCAG | 8410 fluorescence intensity (a.u.)
GGGTTCGGCTTGCCACTCATGGTGACAAAGCTGCCATGAGCGGAGTCACCTAGTGCAG | 8420 fluorescence intensity (a.u.)
GCGCCAGCATCGCCGTGCTTGTAATCTTCATCTTAATTACCGGAGTCACCTAGTGCAG | 8400 fluorescence intensity (a.u.)
GAACTGGCATAAGTTGTTTCCTTTTTTCCACCCCTTTTTACGGAGTCACCTAGTGCAG | 9240 fluorescence intensity (a.u.)
TCCGCTGGTTGGTATCCTACTAATTCTGTCCTACACGTTTCGGAGTCACCTAGTGCAG | 9300 fluorescence intensity (a.u.)
TAATATGAGCTACAGCTGTGTTGGGGCGCTTTTTTTCTTTCGGAGTCACCTAGTGCAG | 8870 fluorescence intensity (a.u.)
CGCTCATCGGCCTTTGTCACCCTGCCGCCCTCTACGAGGGCGGAGTCACCTAGTGCAG | 10400 fluorescence intensity (a.u.)

Quoted at random: three entries already listed, in no set order.
Sequence | binding signal
CAGTACGCTACTATTCATACGCTGAATTTGTCTTTTTATACGGAGTCACCTAGTGCAG | 9120 fluorescence intensity (a.u.)
TCCGCTGGTTGGTATCCTACTAATTCTGTCCTACACGTTTCGGAGTCACCTAGTGCAG | 9300 fluorescence intensity (a.u.)
AACTACTACACACCGGATCAGGCTTCTCCACCTTCCAAATCGGAGTCACCTAGTGCAG | 8280 fluorescence intensity (a.u.)

Further results:

Sequence | binding signal
ATCCTCTGTTTTTTCATTCCTACGATTCAAAGGGGCCCTTCGGAGTCACCTAGTGCAG | 10600 fluorescence intensity (a.u.)
AAGGAGGAGCAAGGATTGTTGTTGTTTCGCTGTCAGATCGCGGAGTCACCTAGTGCAG | 9840 fluorescence intensity (a.u.)
ACGCTCATCCCTTCTTCCACCCTTTCCTTCCCCTCCTCCGCGGAGTCACCTAGTGCAG | 8250 fluorescence intensity (a.u.)
ATCTCACCAAGGATTTCTTCTATAGCTACACATACCCCATCGGAGTCACCTAGTGCAG | 8880 fluorescence intensity (a.u.)
TAGGGATGGATGAGGACTGCCGTTTTTGTGAAAGTTTGGGCGGAGTCACCTAGTGCAG | 8140 fluorescence intensity (a.u.)
TCTTGGCGATTTGTCTGGTTCTGCCTGCTCTTGCTGGTTTCGGAGTCACCTAGTGCAG | 12300 fluorescence intensity (a.u.)
CTTTTGGGTAATCCTGTTGTTGGGTTCTATGGGCCCTGGCCGGAGTCACCTAGTGCAG | 9680 fluorescence intensity (a.u.)
GACACCCATCCATCCGCCTCCTGCCTGCGCCGTCGGCCGACGGAGTCACCTAGTGCAG | 12000 fluorescence intensity (a.u.)
GCATTCCTCAATTTTTCAACGACGTTTGTCAGTTTGCGACCGGAGTCACCTAGTGCAG | 8400 fluorescence intensity (a.u.)
ACTCTCTCCGTTTCGAAATGTTTGACGCTGTTGACTTTTTCGGAGTCACCTAGTGCAG | 17500 fluorescence intensity (a.u.)
CTTGACAAGTGGCATAAGATCGTTCATCATTACCCTTGACCGGAGTCACCTAGTGCAG | 8290 fluorescence intensity (a.u.)
CCGTCGCCGTGCCACCCACTCCACCATCAGTCCATCACATCGGAGTCACCTAGTGCAG | 10400 fluorescence intensity (a.u.)
TGGGTGACCAACACGTTCAGACCCATCATACCTCATTTATCGGAGTCACCTAGTGCAG | 11000 fluorescence intensity (a.u.)
TCTCTCAATCTCTCGTTACTCACCAAGGGTCCAAGGTGACCGGAGTCACCTAGTGCAG | 9270 fluorescence intensity (a.u.)
GCCATCTCCAACGCGCCGTACCTCATGCTGGCCGCGGCCGCGGAGTCACCTAGTGCAG | 8690 fluorescence intensity (a.u.)
TTTTGCCTTTCGCACGGATTTTCTGGCAAGCTTGTGATTCCGGAGTCACCTAGTGCAG | 8460 fluorescence intensity (a.u.)
CAGTGCCATTTCTTTTCTCTGTTATATGTGTAGGCACCATCGGAGTCACCTAGTGCAG | 11000 fluorescence intensity (a.u.)
AAATGTTTCATATCCACACAACCCTTCTCGTCTCGTGTATCGGAGTCACCTAGTGCAG | 9340 fluorescence intensity (a.u.)
ACTTCTACTCCTACTTCCCTGTGTGGCCCACAGCTAGATACGGAGTCACCTAGTGCAG | 10300 fluorescence intensity (a.u.)
CATTATACATTATGATTTTTCATTATAACTTTTCTTTTCTCGGAGTCACCTAGTGCAG | 9020 fluorescence intensity (a.u.)
GGGTCGGCAATGAATATTTGTTCTCGAGTGACGTACAGCACGGAGTCACCTAGTGCAG | 11100 fluorescence intensity (a.u.)
ACCAGAGCCAGCTGACTGCTAATACCCTTGCTTTGGCCAACGGAGTCACCTAGTGCAG | 9570 fluorescence intensity (a.u.)
TTCGCCTTCGCCTTCGTCTTCGTCTACCTCATCTTCGAAACGGAGTCACCTAGTGCAG | 9330 fluorescence intensity (a.u.)
AGGTGTGCCAGATGGTTTCTCTGTTCCTCACCACAGCTCGCGGAGTCACCTAGTGCAG | 8350 fluorescence intensity (a.u.)
TCCTTGCCTCTCTCTCTTCTCCTTGTGTTGATAGCGAGAACGGAGTCACCTAGTGCAG | 8560 fluorescence intensity (a.u.)
AACATTTGTTAAGTTTTTTTTATTGTGTCATATTTTCATCCGGAGTCACCTAGTGCAG | 10100 fluorescence intensity (a.u.)
TAGAATCAAGAGTTTACACTTCCCATGTTGTACAGATTACCGGAGTCACCTAGTGCAG | 8670 fluorescence intensity (a.u.)

Reference: PMC7819943, “Rice protein-binding microarrays: a tool to detect cis-acting elements near promoter regions in rice”
